{"source": "PubChem BioAssay AID493246 (Drosophila RNAi Screening Center, 2011)", "assay": "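Genes fly cells need to grow and stay alive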 (primary screen)", "cells": "Drosophila Kc and S2R+ cells", "reagents": "long dsRNA against Drosophila genes", "measured": "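Cell number per well after knock-down, printed as raw plate values; calls were based on per-plate z-scores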", "scale": "Kc cell number and S2R+ cell number: higher = more cells remaining", "call rule": "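Counted as a hit if cell number falls by a z-score of at least 3 within its plate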", "note": "The deposit covers about 21,000 reagents; this is an unselected part of those that have a named target and a result. Over the whole deposit, 429 (2%) are marked active. 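Values are raw and not normalised between plates; calls rest on per-plate z-scores that were not deposited.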 A plus sign joins genes that one reagent is predicted to hit. Reagent sequences are not shown. Not stated in the record: the amount of reagent, the time to read-out."}
{"target": "Hsp60B", "PubChem SID": "SID104180334", "Kc cell number, rep 1": 1.37e6, "Kc cell number, rep 2": 1.40e6, "S2R+ cell number, rep 1": 9.32e5, "S2R+ cell number, rep 2": 1.03e6, "call": "inactive"}
{"target": "CG11089 + CG31381", "PubChem SID": "SID104193482", "Kc cell number, rep 1": 1.19e6, "Kc cell number, rep 2": 1.60e6, "S2R+ cell number, rep 1": 1.12e6, "S2R+ cell number, rep 2": 1.14e6, "call": "inactive"}
{"target": "CG11089 + CG31381", "PubChem SID": "SID104194082", "Kc cell number, rep 1": 1.62e6, "Kc cell number, rep 2": 1.83e6, "S2R+ cell number, rep 1": 1.23e6, "S2R+ cell number, rep 2": 1.36e6, "call": "inactive"}
{"target": "TwdlW", "PubChem SID": "SID104195332", "Kc cell number, rep 1": 1.38e6, "Kc cell number, rep 2": 1.41e6, "S2R+ cell number, rep 1": 1.09e6, "S2R+ cell number, rep 2": 1.19e6, "call": "inactive"}

In a second layout: entries from further up.
target | PubChem SID | Kc cell number, rep 1 | Kc cell number, rep 2 | S2R+ cell number, rep 1 | S2R+ cell number, rep 2 | call
CG11089 + CG31381 | SID104193482 | 1.19e6 | 1.60e6 | 1.12e6 | 1.14e6 | inactive
CG11089 + CG31381 | SID104194082 | 1.62e6 | 1.83e6 | 1.23e6 | 1.36e6 | inactive

More reagents follow.
{"target": "Cyp4ac1", "PubChem SID": "SID104183094", "Kc cell number, rep 1": 1.51e6, "Kc cell number, rep 2": 1.52e6, "S2R+ cell number, rep 1": 5.42e5, "S2R+ cell number, rep 2": 6.44e5, "call": "inactive"}
{"target": "Notum", "PubChem SID": "SID104189751", "Kc cell number, rep 1": 1.27e6, "Kc cell number, rep 2": 1.51e6, "S2R+ cell number, rep 1": 1.26e6, "S2R+ cell number, rep 2": 1.44e6, "call": "inactive"}
{"target": "CG14434", "PubChem SID": "SID104197719", "Kc cell number, rep 1": 1.52e6, "Kc cell number, rep 2": 1.54e6, "S2R+ cell number, rep 1": 1.07e6, "S2R+ cell number, rep 2": 1.19e6, "call": "inactive"}
{"target": "CG34221", "PubChem SID": "SID104185942", "Kc cell number, rep 1": 1.53e6, "Kc cell number, rep 2": 1.56e6, "S2R+ cell number, rep 1": 1.16e6, "S2R+ cell number, rep 2": 1.23e6, "call": "inactive"}
{"target": "CG6195", "PubChem SID": "SID104195781", "Kc cell number, rep 1": 1.25e6, "Kc cell number, rep 2": 1.21e6, "S2R+ cell number, rep 1": 1.07e6, "S2R+ cell number, rep 2": 1.11e6, "call": "inactive"}
{"target": "dpr1", "PubChem SID": "SID104185698", "Kc cell number, rep 1": 6.25e5, "S2R+ cell number, rep 1": 7.65e5, "call": "inactive"}
{"target": "dpr1", "PubChem SID": "SID104186191", "Kc cell number, rep 1": 1.26e6, "Kc cell number, rep 2": 1.35e6, "S2R+ cell number, rep 1": 1.01e6, "S2R+ cell number, rep 2": 1.40e6, "call": "inactive"}
{"target": "Dop2R", "PubChem SID": "SID104200475", "Kc cell number, rep 1": 1.55e6, "Kc cell number, rep 2": 1.55e6, "S2R+ cell number, rep 1": 1.11e6, "S2R+ cell number, rep 2": 1.21e6, "call": "inactive"}
{"target": "Dop2R", "PubChem SID": "SID104200478", "Kc cell number, rep 1": 1.64e6, "Kc cell number, rep 2": 1.67e6, "S2R+ cell number, rep 1": 1.15e6, "S2R+ cell number, rep 2": 1.25e6, "call": "inactive"}
{"target": "HP4", "PubChem SID": "SID104190750", "Kc cell number, rep 1": 1.46e6, "Kc cell number, rep 2": 1.47e6, "S2R+ cell number, rep 1": 1.32e6, "S2R+ cell number, rep 2": 1.30e6, "call": "inactive"}
